# Some of the results follow.
# Test system: T1, CTL2-GFP (C. trachomatis L2/434/Bu, GFP-expressing)
# T1 construct: L2/434/Bu, GFP-expressing
# Design: species or system HeLa; Intracellular C. trachomatis growth in HeLa cells, bulk GFP fluorescence relative to DMSO
# Conditions: bulk GFP, single well; 28.5 h, 10 µM; inhibitor
row,Compound,% of control remaining [%]
1,COc1cc(OC)c(NS(=O)(=O)c2ccc(C(=O)O)cc2)cc1Cl [CBK296620],112.591
2,CC(C)CCCC(=O)n1ccn(-c2ccc(N(C)C)cc2)c1=O [CBK106603],118.132
3,Cn1cncc1CN1C2CCC1CC(O)(c1ccccc1F)C2 (stereo not drawn) [CBK282649],111.43
4,CC(=O)Nc1ccc(Nc2ncnc3c2cnn3-c2ccc(C)cc2C)cc1 [CBK265803],134.157
5,COCC(=O)N1CCc2sccc2C1c1ccc(NCc2ccccc2F)cc1 (stereo not drawn) [CBK286446],124.683
6,O=C(OCCc1ccncc1)N1CCCC(F)(F)C1 [CBK200157],179.604
7,Cn1cc(CCCNC(=O)c2cccc(CN3CCCCCC3)c2)cn1 [CBK306906],116.404
8,COC(=O)c1ccccc1NC(=O)NCc1cc(C)n(C)n1 [CBK266887C],108.666
9,CC(=O)N(C)[C@H]1CC[C@]2(CC1)CNC(=O)c1ccccc1O2 [CBK281682],95.9991
10,CC(=O)Nc1nc(NC(C)=O)n2c(-c3ccccc3)nnc2n1 [CBK026649],123.566
11,CC(=O)c1ccc(NC(=O)NC[C@H]2C[C@@H]3CC[N@]2C[C@@H]3CN2CCN(C)CC2)cc1 [CBK288768],77.6672
12,O=C(O)C1CSC(c2cccnc2)N1 (stereo not drawn) [CBK260910],115.31
13,N#CCCCN1CCC(Oc2nccnc2OCc2cccc(Cl)c2)CC1 [CBK153642],117.421
14,CC(C)Nc1cc(OCc2cccnc2)ncn1 [CBK115883],110.864
15,COC(=O)c1sccc1NS(=O)(=O)c1ccc(C(F)(F)F)cc1 [CBK200041],110.564
16,CCOC(=O)c1c(C#N)c(SCc2ccc(Cl)cc2)nc2c1CN(CC)CC2 [CBK021337],93.1588
17,Cc1[nH]nc(Nc2cccc(C(=O)O)c2)c1[N+](=O)[O-] [CBK262725],126.537
18,CCOC(=O)c1cnn(C2CCCN(C(=O)c3cscc3C)C2)c1 (stereo not drawn) [CBK305385],92.8961
19,O=C(CCCN1CCN(C(=O)NC2CCC(O)CC2)CC1)c1ccc(F)cc1 (stereo not drawn) [CBK025156C],100
20,N#Cc1ccc(CNC(=O)c2ccc3[nH]ccc3c2)cc1 [CBK149078],111.96
21,COc1cccc(-c2n[nH]c3c2C(c2cccnc2)NC3=O)c1 (stereo not drawn) [CBK288238],105.908
22,CCN(Cc1ccccc1)C(=O)Nc1ccccc1 [CBK012816],92.8387
23,CC(C)(C)OC(=O)N1CCC(c2nc3ccc(F)cc3cc2N)CC1 [CBK284658],70.7796
24,COCCOC(=O)N1CCC(N(C)Cc2ccc(-c3ccc(S(C)(=O)=O)cc3)nc2)CC1 [CBK165258T],116.923
25,O=C(c1ccco1)N1CCC(c2nnc3n2CCCCC3)CC1 [CBK284607],153.681
26,C[C@H](NC(=O)N1CCN(C(=O)c2c[nH]c3ccccc23)CC1)C(=O)O [CBK286581],111.744

# Part of the list above, with bars between the fields.
row | Compound | % of control remaining [%]
5 | COCC(=O)N1CCc2sccc2C1c1ccc(NCc2ccccc2F)cc1 (stereo not drawn) [CBK286446] | 124.683
6 | O=C(OCCc1ccncc1)N1CCCC(F)(F)C1 [CBK200157] | 179.604

# Continuation.

row,Compound,% of control remaining [%]
1,Cc1cc2n(n1)[C@@H](C(F)F)C[C@@H](C1CCN(C(=O)C(C)C)CC1)N2 [CBK284725],124.452
2,O=S(=O)(Nc1nnn[nH]1)c1ccc(-c2cnco2)s1 [CBK062394],84.565
3,CCC(CO)Nc1cncc(-c2cc(C(C)C)ccc2OC)n1 (stereo not drawn) [CBK065743],96.3056
4,Cc1c(C(=O)NC2CCN(c3ncccc3C#N)CC2)ccn1C [CBK307681],137.147
5,O=c1[nH]c2ncc(-c3cccc(CO)c3)nc2n1CC1CC1 [CBK065088],154.109
6,O=C(O)c1ccc(NC(=O)c2cccc(NC(=O)c3cccc4ccccc34)c2)cc1 [CBK299823],118.578
7,Nc1ncc(-c2occc2C=O)nc1NC1CCOCC1 [CBK063789],198.474
8,Cn1cc(N2CCC(NC(=O)c3ccc(C#N)cc3)C2=O)cn1 (stereo not drawn) [CBK305182],146.171
9,COCCCn1c(C)c(C)n2c3c(=O)n(CCN4CCCCC4)c(=O)n(C)c3nc12 [CBK269762],127.743
10,O=C(O)[C@@H]1CCN(Cc2ccccc2)C[C@H]1c1ccccc1 [CBK286840],125.715
11,COc1cccc(COc2cncc(N3CCNCC3)n2)c1OC [CBK200003],51.6643
12,O=[N+]([O-])c1cc(-c2nc(-c3cccs3)c(-c3cccs3)[nH]2)ccc1Br [CBK265009],101.393
13,Cc1ccc(S(=O)(=O)NC2c3cccc4cccc(c34)C2Sc2nnc(N)[nH]2)cc1 (stereo not drawn) [CBK265875],110.055
14,CC(=O)NC1(c2ccccc2)CCN(Cc2ccnn2C)CC1 [CBK281805],128.388
15,O=C(O)c1ccc(NC(=O)c2ccccc2F)c(NC(=O)c2ccccc2F)c1 [CBK275363],120.457
16,CCc1nc2ccc(C(=O)Nc3ccc(C(N)=O)cc3)cn2c1N(CC)Cc1cccc(Br)c1 [CBK146960],122.071
17,O=[N+]([O-])c1ccccc1S(=O)(=O)N1CCN(S(=O)(=O)c2ccc(Cl)cc2)CC1 [CBK264311],100
18,CCOc1cc(NC2CCN(C(=O)C(C)CC3CCCC3)CC2)ncn1 (stereo not drawn) [CBK306176],91.4522
19,Cn1cc(C(=O)NC2CCN(C(=O)c3ccc4c(c3)CCC4)CC2)cn1 [CBK305664],98.9875
20,CCOc1ccc(CC(=O)N2CCC(c3ccncc3)CC2)cc1 [CBK283596],122.507
21,CC(C)(C)n1cc2c(n1)[C@H]1CN(C(=O)CN3CCCC3=O)C[C@H]1CC2 [CBK283401],128.288
22,Cc1cc(N2CCCN3CCCCCC32)nc(N)n1 (stereo not drawn) [CBK169746],120.33
23,CCOC(=O)c1c(NC(=O)CN2CCOCC2)sc2c1CCC2 [CBK262548],112.405
24,CCOc1nc(Nc2nc(-c3ccccc3)cs2)nc(OCC)n1 [CBK262442],133.26
25,CCOC(=O)c1c(C(C)(C)C)oc2ccc(OCC(=O)c3ccc(OC)cc3)cc12 [CBK264950],115.611

# Molecules listed so far that contain an NH in an aromatic ring, in the order listed:
row,Compound,% of control remaining [%]
17,Cc1[nH]nc(Nc2cccc(C(=O)O)c2)c1[N+](=O)[O-] [CBK262725],126.537
20,N#Cc1ccc(CNC(=O)c2ccc3[nH]ccc3c2)cc1 [CBK149078],111.96
21,COc1cccc(-c2n[nH]c3c2C(c2cccnc2)NC3=O)c1 (stereo not drawn) [CBK288238],105.908
26,C[C@H](NC(=O)N1CCN(C(=O)c2c[nH]c3ccccc23)CC1)C(=O)O [CBK286581],111.744
2,O=S(=O)(Nc1nnn[nH]1)c1ccc(-c2cnco2)s1 [CBK062394],84.565
5,O=c1[nH]c2ncc(-c3cccc(CO)c3)nc2n1CC1CC1 [CBK065088],154.109
12,O=[N+]([O-])c1cc(-c2nc(-c3cccs3)c(-c3cccs3)[nH]2)ccc1Br [CBK265009],101.393
13,Cc1ccc(S(=O)(=O)NC2c3cccc4cccc(c34)C2Sc2nnc(N)[nH]2)cc1 (stereo not drawn) [CBK265875],110.055

# Source: publication PMC12040169 (PLOS Biology, 2025)
